The experiment has as its system acetic acid-induced writhings in mice. Kind of experiment: Antagonism of Acetic Acid-Induced Writhings In Mice. The class given is in vivo, mouse (NMRI). The conditions noted are these: s.c. 30 min before acetic acid 0.5 per cent i.p.; 50 per cent protection. How it is done:
Antagonism of Acetic Acid-Induced Writhings In Mice
In mice i.p. injection of acetic acid induces a writhing syndrome which is antagonized by analgesics (Siegmund et al., 1957; Eckhardt et al., 1957).
Acetic acid 0.5 per cent is injected i.p. (0.15 ml/10 g body weight) to 6 mice (NMRI, either sex weighing 20-25 g) pretreated with physiological saline (controls) and to 6 mice pretreated with test substance. In the controls acetic acid induces a syndrome characterized by contraction of abdomen, turning of trunk and extension of hind limbs. Saline and test substances are administered s.c. 30 min. before acetic acid. The number of writhings is counted 5-15 min. after injection of acetic acid.
The activity is expressed as per cent protection: [formula]
The effect of active substances is evaluated by a dose response curve, log dose on the abscissa, and per cent protection on the ordinate. The potency is expressed as the dose (ED50 in mg/kg giving 50 per cent protection against writhings.
Analgesics and various other drugs inhibit acetic acidinduced writhings in mice. This test is used as a screening test for analgesics. Additional results from other screening tests are required to exclude active anti-writhing substances without analgesic effect.

Take `CN1CC[C@]23c4c5ccc(O)c4O[C@H]2[C@@H](O)C=C[C@H]3[C@H]1C5` [Morphine, reference compound]: the “Antagonism of acetic acid-induced writhings in mice, ED50” value came to 0.26 mg/kg.

Values taken from patent US5246935A, “Piperazinyl derivatives and methods of treating central nervous system ailments relating to the 5-HT2 receptor system” (Novo Nordisk A/S, priority 1990, dated 1993).
